Measurements reported in publication PMC8099881.
These are yes or no findings as the source states them, for the method shown. In cells and extracts the contact can be indirect. Some binding calls cover weakened binding; strength is not graded here. Tags and fused reporters may be left off the sequences shown.

Protein sequences, listed by entry. Tags and fused reporters are not part of them.
UniProt P61073: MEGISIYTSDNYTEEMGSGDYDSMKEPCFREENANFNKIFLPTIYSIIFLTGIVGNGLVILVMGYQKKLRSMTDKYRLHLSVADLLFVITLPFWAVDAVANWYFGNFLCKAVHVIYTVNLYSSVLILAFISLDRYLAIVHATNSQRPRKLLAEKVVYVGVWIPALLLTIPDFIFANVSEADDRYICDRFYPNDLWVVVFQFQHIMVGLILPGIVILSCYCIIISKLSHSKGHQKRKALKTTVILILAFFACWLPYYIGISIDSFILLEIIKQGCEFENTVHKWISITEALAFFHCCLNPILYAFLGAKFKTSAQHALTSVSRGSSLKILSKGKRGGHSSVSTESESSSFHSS

Target: C-X-C chemokine receptor type 4 (CXCR4) (human (endogenous in HUVEC)) (UniProt P61073)
Test: co-IP; HUVEC membrane proteins (Mem-PER extraction) incubated with or without recombinant GST-SDF4; immunoprecipitated with antibodies against SDF4, GST or CXCR4 at 4 °C for at least 4 h, protein-A/G agarose, washed three times with modified RIPA buffer, western blot; only the binder purified

binding: binds
B1: GST-SDF4 (recombinant stromal-cell-derived factor 4) (protein, UniProt Q9BRK5 37-362)
chain: RPANHSSTRERVANREENEILPPDHLNGVKLEMDGHLNRGFHQEVFLGKDLGGFDEDAEPRRSRRKLMVIFSKVDVNTDRKISAKEMQRWIMEKTAEHFQEAMEESKTHFRAVDPDGDGHVSWDEYKVKFLASKGHSEKEVADAIRLNEELKVDEETQEVLENLKDRWYQADSPPADLLLTEEEFLSFLHPEHSRGMLRFMVKEIVRDLDQDGDKQLSVPEFISLPVGTVENQQGQDIDDNWVKDRKKEFEELIDSNHDGIVTAEELESYMDPMNEYNALNEAKQMIAVADENQNHHLEPEEVLKYSEFFTGSKLVDYARSVHEEF
